PubChem BioAssay AID1671195, Yale University | 2021

Aim: 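Knockdowns that increase or decrease uptake of fluorescent LDL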 (primary screen)
Cell system: human Huh7 hepatoma cells
Reagent: siRNA pool against human genes, 18 nM
Duration: about 2 to 2.5 days of knockdown, then 8 h LDL uptake
Conditions: DiI-labelled LDL at 30 µg/ml for 8 h, in lipoprotein-deficient serum medium
Measurement: 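Fluorescent LDL signal imaged in cells, scaled to the plate median, robust z-score for each replicate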
Scale: robust z-score: higher = more LDL uptake after knockdown
Hit rule: 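a gene counts as active if at least two replicate z-scores exceed ±2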
Here is a random part of about 22,000 deposited reagents. About 1,510 of them (6.9%) were called active. 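Active includes knockdowns raising or lowering LDL uptake; positive z-scores mean more uptake, negative mean less.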 Entries without a mark were called inactive. The numbers tell different reagents against one gene apart. Reagent sequences are not shown.

Gene	reagent no.	robust z-score, replicate 1	robust z-score, replicate 2	robust z-score, replicate 3
GEN1 (GeneID 348654)	1	0.752	0.538	1.27
LOC387859 (retired record) (GeneID 387859)	1	0.0953	-0.375	0.193
GSEC (GeneID 399972)	1	-0.701	-0.676	-0.849
ZACN (GeneID 353174)	1	0.144	-0.395	0.773
CPXCR1 (GeneID 53336)	1	0.222	-0.763	0.81
DXO (GeneID 1797)	1	-1.67 (active)	-2.7	-1.96
SMARCD3 (GeneID 6604)	1	-0.31	0.136	0.39
LOC392556 (retired record) (GeneID 392556)	1	-0.729	1.25	1.06
ZNF322 (GeneID 79692)	1	0.392	0.381	0.472
IFTAP (GeneID 119710)	1	0.12	-0.233	-0.239
ATOSB (GeneID 80256)	1	1.17	0.588	0.489
CCL5 (GeneID 6352)	1	1.38	1.2	1.3
ZNF843 (GeneID 283933)	1	0.117	0.269	0.166
LOC387946 (retired record) (GeneID 387946)	1	-1.57	-1.32	-1.37
GTF3C2 (GeneID 2976)	1	-0.102	0.722	0.629

Continued; the last 4 above are carried over.
Gene	reagent no.	robust z-score, replicate 1	robust z-score, replicate 2	robust z-score, replicate 3
CCL5 (GeneID 6352)	1	1.38	1.2	1.3
ZNF843 (GeneID 283933)	1	0.117	0.269	0.166
LOC387946 (retired record) (GeneID 387946)	1	-1.57	-1.32	-1.37
GTF3C2 (GeneID 2976)	1	-0.102	0.722	0.629
LOC440759 (retired record) (GeneID 440759)	1	0.464	-0.393	-0.3
TCP10L (GeneID 140290)	1	3.39 (active)	2.89	3.32
TCP10L (GeneID 140290)	2	0.816	0.184	0.498
SLC22A14 (GeneID 9389)	1	-0.168	0.0593	0.13
CIPC (GeneID 85457)	1	-0.401	-0.655	-0.848
OR2J3 (GeneID 442186)	1	-0.799	-1.19	-0.994
CDH1 (GeneID 999)	1	0.761	0.276	0.587
IL17D (GeneID 53342)	1	1	0.0983	2.68
BLCAP (GeneID 10904)	1	1.66	3.57	0.934
JPT1 (GeneID 51155)	1	-1.55	0.63	0.334
LOC387754 (retired record) (GeneID 387754)	1	-0.499	-0.759	-0.94
RNF34 (GeneID 80196)	1	0.599	-0.0505	0.716
LINC01602 (GeneID 100505477)	1	0.497	0.15	1.04
